Measurements taken from ChEMBL document CHEMBL4257587 (J Med Chem, 2018).
pIC50: −log10 of the molar value. ≈ marks a conversion by molar mass, not a printed value.

Legend:
physchem = settings: buffer, pH 7.4
HepG2 = assay: Cytotoxicity against human HepG2 cells assessed as effect on membrane permeability after 48 hrs by TOTO-3 iodide-staining based cell health assay; type: ADME; settings: HepG2, 48 h

Compound | solubility kinetic at 1 h (physchem) | pIC50 (HepG2)
CC(C)(C)c1ccc(CN2CCC3(CCCCO3)CC2)cc1 | ≥ 596 µM | –
FC(F)(F)Oc1ccc(Oc2ccc(N3CCC4(CC3)OCCc3sccc34)cc2)cc1 | 6 µM (≈ 2.77 µg/mL) | 4.90
